Data: ChEMBL document CHEMBL4400508, “Targeted Endocrine Therapy: Design, Synthesis, and Proof-of-Principle of 17β-Hydroxysteroid Dehydrogenase Type 2 Inhibitors in Bone Fracture Healing” (J Med Chem, 2019)

Assay: in vitro
Conditions: human, s9

SMILES: O=C(c1cccc(O)c1)c1ccc(-c2cccc(NS(=O)(=O)c3ccccc3)c2)s1
- half-life: < 5 min
